The target of test [1] is T1, Flag-tagged human EFHD2 (EF-hand domain-containing protein D2) (human) (UniProt Q96C19).
T1 sequence: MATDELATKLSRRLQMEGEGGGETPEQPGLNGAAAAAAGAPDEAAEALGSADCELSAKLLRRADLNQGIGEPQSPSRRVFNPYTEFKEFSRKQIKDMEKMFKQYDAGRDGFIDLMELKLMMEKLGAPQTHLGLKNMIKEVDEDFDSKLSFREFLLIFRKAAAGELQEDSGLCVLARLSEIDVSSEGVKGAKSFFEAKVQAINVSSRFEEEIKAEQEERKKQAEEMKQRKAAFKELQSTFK
The experiment in a line: co-IP; lysates of HCT-116 cells overexpressing Flag-EFHD2, treated with 50 ng/ml TNF for the indicated time, immunoprecipitated with anti-FLAG M2 magnetic beads, western blot.

Sequences of proteins named here, by UniProt entry; tags and fusion partners are left off.
UniProt Q13546: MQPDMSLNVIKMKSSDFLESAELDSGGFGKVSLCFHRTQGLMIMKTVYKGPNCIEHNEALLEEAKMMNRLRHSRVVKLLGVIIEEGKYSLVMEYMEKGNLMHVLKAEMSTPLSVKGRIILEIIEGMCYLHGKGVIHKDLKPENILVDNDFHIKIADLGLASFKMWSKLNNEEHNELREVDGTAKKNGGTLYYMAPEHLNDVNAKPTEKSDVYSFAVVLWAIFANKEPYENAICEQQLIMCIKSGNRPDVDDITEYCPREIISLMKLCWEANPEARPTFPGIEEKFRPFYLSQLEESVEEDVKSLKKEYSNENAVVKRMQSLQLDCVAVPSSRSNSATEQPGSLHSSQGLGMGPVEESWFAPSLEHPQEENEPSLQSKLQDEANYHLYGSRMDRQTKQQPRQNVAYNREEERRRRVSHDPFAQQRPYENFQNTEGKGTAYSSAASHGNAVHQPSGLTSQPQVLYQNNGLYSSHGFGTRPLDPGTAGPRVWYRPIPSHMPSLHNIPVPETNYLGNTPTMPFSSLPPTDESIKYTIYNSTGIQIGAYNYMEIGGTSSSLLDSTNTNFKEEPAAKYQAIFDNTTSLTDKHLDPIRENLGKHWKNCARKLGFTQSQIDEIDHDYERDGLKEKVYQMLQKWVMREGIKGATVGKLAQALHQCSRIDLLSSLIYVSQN

The target in test [2] is endogenous RIPK1 (human (endogenous in HCT-116)) (UniProt Q13546). As to the kind of experiment: co-IP; lysates of HCT-116 cells treated with TNF for the indicated time, immunoprecipitated with anti-RIPK1 (CST #3493), western blot for endogenous EFHD2. On the technique in general: A western blot detects proteins with antibodies after separation by electrophoresis.

These are yes or no findings as the source states them, for the method shown. Binding seen in cells or lysates may run through a third protein. Some entries that bind do so weakly or less than the wild type. For part of these data: Sequences can lack the tags named with a protein.

“endogenous RIPK1 (from UniProt Q13546 1-671)”: the binding result in test [1] is given as “binds”.

B1: endogenous EFHD2 (protein, UniProt Q96C19 1-240)
chain: T1 sequence
With B1, the binding entry in test [2] is given as “binds”.

B2: TRADD (protein, UniProt Q15628 1-312)
chain: MAAGQNGHEEWVGSAYLFVESSLDKVVLSDAYAHPQQKVAVYRALQAALAESGGSPDVLQMLKIHRSDPQLIVQLRFCGRQPCGRFLRAYREGALRAALQRSLAAALAQHSVPLQLELRAGAERLDALLADEERCLSCILAQQPDRLRDEELAELEDALRNLKCGSGARGGDGEVASAPLQPPVPSLSEVKPPPPPPPAQTFLFQGQPVVNRPLSLKDQQTFARSVGLKWRKVGRSLQRGCRALRDPALDSLAYEYEREGLYEQAFQLLRRFVQAEGRRATLQRLVEALEENELTSLAEDLLGLTDPNGGLA
In the case of B2, the binding entry in test [1] is listed as “binds”.

The values above are taken from PMC10861516.
